In article PMC4762662 one finds binding data, which are given here for 4 molecules.

Protein sequences, listed by entry. Tags and fused reporters are not part of them.
UniProt Q86WV6: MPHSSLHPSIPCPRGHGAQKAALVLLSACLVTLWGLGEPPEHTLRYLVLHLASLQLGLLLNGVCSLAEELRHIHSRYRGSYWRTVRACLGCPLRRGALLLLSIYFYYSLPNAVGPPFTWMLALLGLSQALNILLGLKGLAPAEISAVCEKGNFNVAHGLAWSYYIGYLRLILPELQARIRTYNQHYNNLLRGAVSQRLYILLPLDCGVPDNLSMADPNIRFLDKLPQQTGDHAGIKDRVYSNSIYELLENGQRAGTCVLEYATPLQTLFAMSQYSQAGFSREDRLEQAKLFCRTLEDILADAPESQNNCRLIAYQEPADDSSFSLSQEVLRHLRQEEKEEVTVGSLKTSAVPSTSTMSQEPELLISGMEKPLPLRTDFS

Assay [1] concerns the target Stimulator of interferon genes (STING), HA-tagged (human (by the printed RefSeq entry)), Q86WV6. In words: co-IP. Conditions: remark: other sources report otherwise.
In assay [2] the target is T1, STING, endogenous in MEF cells (mouse (endogenous in MEF)) (UniProt Q3TBT3).
T1 sequence: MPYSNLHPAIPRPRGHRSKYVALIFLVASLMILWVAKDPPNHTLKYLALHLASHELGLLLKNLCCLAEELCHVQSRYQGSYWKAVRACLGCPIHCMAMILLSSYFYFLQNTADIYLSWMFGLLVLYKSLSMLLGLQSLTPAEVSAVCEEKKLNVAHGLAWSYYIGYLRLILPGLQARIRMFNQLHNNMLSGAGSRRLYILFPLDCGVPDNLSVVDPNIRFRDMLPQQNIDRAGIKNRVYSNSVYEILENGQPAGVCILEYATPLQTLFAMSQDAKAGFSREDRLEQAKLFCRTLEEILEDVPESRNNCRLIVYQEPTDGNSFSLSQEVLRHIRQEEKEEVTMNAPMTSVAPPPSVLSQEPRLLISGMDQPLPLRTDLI
Nature of the assay: co-IP; endogenous proteins in MEF lysates; IP with anti-STING or anti-IRF3 antibody or normal IgG; cells untreated or stimulated with HSV-1, Listeria monocytogenes or ISD; with N.C., Insig1 or Scap siRNA; with or without stable Flag-SCAP; WT or sting-/- MEF.

In assay [3] the target is T2, IRF3, endogenous in MEF cells (mouse (endogenous in MEF)) (UniProt P70671).
T2 sequence: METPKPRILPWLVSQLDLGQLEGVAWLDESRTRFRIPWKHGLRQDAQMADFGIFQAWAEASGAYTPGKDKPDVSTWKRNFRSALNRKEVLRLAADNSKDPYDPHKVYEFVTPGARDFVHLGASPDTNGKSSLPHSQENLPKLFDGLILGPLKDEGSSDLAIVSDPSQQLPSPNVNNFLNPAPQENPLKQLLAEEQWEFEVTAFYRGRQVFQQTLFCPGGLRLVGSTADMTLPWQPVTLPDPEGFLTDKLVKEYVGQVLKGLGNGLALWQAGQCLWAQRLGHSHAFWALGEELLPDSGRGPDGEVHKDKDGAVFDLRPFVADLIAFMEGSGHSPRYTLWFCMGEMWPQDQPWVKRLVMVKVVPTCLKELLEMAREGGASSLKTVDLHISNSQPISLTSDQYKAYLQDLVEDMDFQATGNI
The description is as above.

Assay [4] has as its target Stimulator of interferon genes (STING), HA-tagged (human (by the printed RefSeq entry)) (UniProt Q86WV6). Nature of the assay: co-IP.
For assay [5], the target named is T3, IRF3, endogenous in MEF cells (mouse (endogenous in MEF)), P70671.
T3 chain: T2 sequence
Nature of the assay: native gel or EMSA; native PAGE of extracts of MEF cells stimulated with ISD, after N.C., Scap or Tom20 siRNA; IRF3 dimerization. Conditions: remark: other sources report otherwise.

Results are given in words; binding and its absence hold for the method and conditions named. For some assays here: In cells and extracts the contact can be indirect. Some binding calls cover weakened binding; strength is not graded here. For some assays here: Tags and fused reporters may be left off the sequences shown.

B1: TBK1, Flag-tagged, Q9UHD2 1-729 (enzyme)
chain: MQSTSNHLWLLSDILGQGATANVFRGRHKKTGDLFAIKVFNNISFLRPVDVQMREFEVLKKLNHKNIVKLFAIEEETTTRHKVLIMEFCPCGSLYTVLEEPSNAYGLPESEFLIVLRDVVGGMNHLRENGIVHRDIKPGNIMRVIGEDGQSVYKLTDFGAARELEDDEQFVSLYGTEEYLHPDMYERAVLRKDHQKKYGATVDLWSIGVTFYHAATGSLPFRPFEGPRRNKEVMYKIITGKPSGAISGVQKAENGPIDWSGDMPVSCSLSRGLQVLLTPVLANILEADQEKCWGFDQFFAETSDILHRMVIHVFSLQQMTAHKIYIHSYNTATIFHELVYKQTKIISSNQELIYEGRRLVLEPGRLAQHFPKTTEENPIFVVSREPLNTIGLIYEKISLPKVHPRYDLDGDASMAKAITGVVCYACRIASTLLLYQELMRKGIRWLIELIKDDYNETVHKKTEVVITLDFCIRNIEKTVKVYEKLMKINLEAAELGEISDIHTKLLRLSSSQGTIETSLQDIDSRLSPGGSLADAWAHQEGTHPKDRNVEKLQVLLNCMTEIYYQFKKDKAERRLAYNEEQIHKFDKQKLYYHATKAMTHFTDECVKKYEAFLNKSEEWIRKMLHLRKQLLSLTNQCFDIEEEVSKYQEYTNELQETLPQKMFTASSGIKHTMTPIYPSSNTLVEMTLGMKKLKEEMEGVVKELAENNHILERFGSLTMDGGLRNVDCL
As for B1, the binding entry in assay [1] was “binds”.

B2: SCAP, endogenous in MEF cells (protein, UniProt Q6GQT6 1-1276)
chain: MTLTERLREKISQAFYNHGLLCASYPIPIILFTGLCILACCYPLLKLPLPGTGPVEFSTPVKGYSPPPADSDHKQGEPSEQPEWYVGAPVAYIQQIFVKSSVSPWHRNLLAVDVFRSPLSRAFQLVEEIRNHVLRDSSGTKSLEEVCLQVTDLLPGLRKLRSLLPEHGCLLLSPGNFWQNDWERFHADPDIIGTIHQHEPKTLQTSATLKDLLFGVPGKYSGVSLYTRKRMVSYTITLVFQRYHAKFLSSLRARLMLLHPSPNCSLRAENLVHVHFKEEIGIAELIPLVTTYIILFAYIYFSTRKIDMVKSKWGLALAAVVTVLSSLLMSVGLCTLFGLTPTLNGGEIFPYLVVVIGLENVLVLTKSVVSTPVDLEVKLRIAQGLSSESWSIMKNAATELGIILIGYFTLVPAIQEFCLFAVVGLVSDFFLQMLFFTTVLSIDIRRMELADLNKRLPPESCLPSAKPVGRPARYERQQAVRPSTPHTITLQPSSFRNLRLPKRLRVIYFLARTRLAQRLIMAGTVVWIGILVYTDPAGLRTYLAAQVTEQSPLGEGSLGPMPVPSGVLPASHPDPAFSIFPPDAPKLPENQTLPGELPEHAGPAEGVHDSRAPEVTWGPEDEELWRKLSFRHWPTLFNYYNITLAKRYISLLPVIPVTLHLNPREALEGRHPQDGRSAWAPQEPLPAGLWESGPKGPGGTQTHGDITLYKVAALGLAAGIVLVLLLLCLYRVLCPRNYGQPGGGPGRRRRGELPCDDYGYAPPETEIVPLVLRGHLMDIECLASDGMLLVSCCLAGQVCVWDAQTGDCLTRIPRPGPRRDSCGGGAFETQENWERLSDGGKASPEEPGDSPPLRRRPRGPPPPSLFGDQPDLTCLIDTNFSVQLPPEPTQPEPRHRVGCGRSRDSGYDFSRLVQRVYQEEGLAAMRMPALRPPSPGPPLPQASQEEGTAPEKGSPPLAWTPSTAGSIWSLELQGNLIVVGRSSGRLEVWDAIEGVLCCSNEEISSGITALVFLDRRIVAARLNGSLDFFSLETHTSLSPLQFRGTPGRGSSPSSSVYSSSNTVTCHRTHTVPCAHQKPITALRAAAGRLVTGSQDHTLRVFRLDDSCCLFTLKGHSGAITAVYIDQTMVLASGGQDGAICLWDVLTGSRVSQTFAHRGDVTSLTCTASCVISSGLDDFISIWDRSTGIKLYSIQQDLGCGASLGVISDNLLVTGGQGCVSFWDLNYGDLLQTVYLGKNSEAQPARQILVLDNAAIVCNFGSELSLVYVPSVLEKLD
In the case of B2, the binding entry in assay [2] and in assay [3] was “binds” each time.

B3: insulin induced gene 1 (INSIG1), epitope-tagged (protein, UniProt O15503-1 1-277)
chain: MPRLHDHFWSCSCAHSARRRGPPRASAAGLAAKVGEMINVSVSGPSLLAAHGAPDADPAPRGRSAAMSGPEPGSPYPNTWHHRLLQRSLVLFSVGVVLALVLNLLQIQRNVTLFPEEVIATIFSSAWWVPPCCGTAAAVVGLLYPCIDSHLGEPHKFKREWASVMRCIAVFVGINHASAKLDFANNVQLSLTLAALSLGLWWTFDRSRSGLGLGITIAFLATLITQFLVYNGVYQYTSPDFLYIRSWLPCIFFSGGVTVGNIGRQLAMGVPEKPHSD
For the molecule B3, the binding result in assay [4] is reported as “binds”.

B4: IRF3, endogenous in MEF cells, P70671 1-419 (protein)
chain: T2 sequence
For B4, the binding result in assay [5] is given as “binds”.
